Assay results from PubChem BioAssay AID1347423 (Functional Genomics Laboratory (NCATS/FGL), 2020).
In all, about 52,000 sequences went through this assay and about 210 (0.4%) were called active.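 The calls were made as follows: active = gene whose silencing raises cell survival under the drug, median off-target-corrected z-score across its silencing RNAs 2 or more; inactive = the rest.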 The list shows a part of the results.

Experiment: Resistance to Poly (ADP-Ribose) Polymerase inhibitor: Gene Identification via Genome-wide siRNA Screen
Conditions: mouse BRCA2 R2336H ES cells, olaparib, CellTiter-Glo viability; hits give high values
How it was run: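 Mouse BRCA2 R2336H ES cells were reverse-transfected with siRNA (20 nM final), treated at 48 h with 500 nM olaparib, and read by CellTiter-Glo after 72 h. Scores: MAD-based z per siRNA, median per gene, seed off-target correction.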

Sequence | z-score
CCUCCAGUUACGAUGGAGATT against 4930434E21Rik | inactive: -1.5
GGAUGAGAAGGAGAAAUACTT against 4933405K18Rik | inactive: -0.45
GGUUUUAUGAGAAUAGAACTT against Zdhhc21 | inactive: -0.91
GGGUCUGUGGGACAUUAUGTT against Tde2l | inactive: -0.602
GGUUUUCCAUCUCCUCCAGTT against Klrc1 | inactive: 0.461
GCUAAGAGAGAACAUUGAGTT against Ppil5 | inactive: -1.14
CCAGCUUCAAGGAACAUGGTT against 1700008G05Rik | inactive: -0.0217
GGAAGACCAUUGUUGUUAATT against Has2 | inactive: 2.1
CCAGCAUUGAUAGACAGAUTT against AI429612 | inactive: -0.564
GGAUGCAGUAGAAAUGCUGTT against Ank | inactive: 2.43
GUGGAUACGUGGGAAAGUCTT against Nmnat1 | inactive: -0.246
GGAAACUGUCACAGAUUUUTT against Rgl3 | inactive: -0.467
CCCUGGUAAACACCAAUAGTT against Catna1 | inactive: 0.576
GGGAUGAAUACACUUGUUGTT against Cox5a | inactive: 1.38
GGAACAUGUCUCCUGAUCUTT against Add3 | inactive: 0.481
GGAUUCAGAAAUCUGGAAATT against Nmnat3 | inactive: 0.418
GGACUUGCAUACCUUGAUCTT against Dcn | inactive: -0.948
CCACCCGUUUUGUUGUACCTT against 4833418A01Rik | inactive: -0.022
GGAUCUUGGAUAAAGUGUGTT against E130016I23Rik | inactive: 0.018
GGAAGAUGGGAACAGCACUTT against 2510004L01Rik | inactive: 0.903
GGCAUCUAUAUCAUCAAAUTT against Pde6a | inactive: 0.761
GGACCUGCUCUUGGUCAUUTT against 3110048E14Rik | inactive: 2.31
CCCUCUGCUCUAUGUGGUCTT against Olfr1040 | inactive: -0.482
GCACUGACACUGUUUAUCGTT against Sync | inactive: 0.861
CCUUCACUAAGGGUAGCUGTT against LOC574418 | inactive: -0.986
GGAAGUUUUGAUCACGAUUTT against 4930532D21Rik | inactive: -0.569

Sequence | z-score
GCUCCAGACGAUGGUUGAATT against Ppp1r1a | inactive: 0.17
GGUCUGUAUCCCACUUUUCTT against 6330580J24Rik | inactive: 0.368
GGCGGAAAAGCAAAUUGGUTT against Pit1 | inactive: -0.54
CCAACAAGCCUAAUUAAAGTT against Gt(ROSA)26asSor | inactive: 2.59
GGUCAUCUGAUAAAUGAGUTT against 4631423F02Rik | inactive: 0.917
GGAAUCUAUGAACAUGUUUTT against Pcdh12 | inactive: 0.631
GGCUCGAUUACUGAGUACATT against Bnip2 | inactive: 0.62
GGUUGUGUUGGAGGUUAAGTT against Snta1 | inactive: -0.839
GGUGAAAGCUUUGAUUCUGTT against Zbtb20 | inactive: 1.87
GGCUGUUAUCCAGAGAGAUTT against E130304F04Rik | inactive: -0.592
GGUUGUCUCUCAGUAUUCATT against Cct4 | inactive: -2.48
GGUUUCAUCAAAGUGCAUUTT against Rassf5 | inactive: 0.63
GGACAUAGUGUGAUAUCUUTT against Man1c1 | inactive: -0.572
GGACAAGAAAAUGCUAUCATT against Pcsk1 | inactive: -2.45
GGAGCUCACCACAUCCCUATT against Rap2ip | inactive: -0.956
CCCGAGUAACUUUUAUAUCTT against Tdrd1 | inactive: 0.745
GGAGAAAAAUCUAUUACCUTT against Tmem16d | inactive: -1.38
GGAAAUACGGCUUCAUCUATT against Cyp26a1 | inactive: 0.936
GCAUUGUUUCUCUGGUAAUTT against Cd200 | inactive: 0.0487
GGCUGUUAGAGGAAGAGAUTT against Ube3b | inactive: -1.32
GCAGAAUGGUAAAUCCGAUTT against Mc5r | inactive: 1.96
GGAAAUAACAGGCUUUUUGTT against Egfr | inactive: 0.165
GGUAGUGUUCAUUGAGGAATT against Oas1d | inactive: -1.43
GGUUACAUUGCUCUCGUGCTT against V1re11 | inactive: -0.262
GGAUUCACACAGAGGUAAATT against 1700025J14Rik | inactive: -1.34
GGCUAUUCUCAAGGUGUUATT against Olfr568 | inactive: -0.478

Sequence | z-score
GCUAGAUGCUCGGAUCCAGTT against Ei24 | inactive: 0.313
GGUGAUGCACUAUUAAGAATT against D230016N13Rik | inactive: 0.69
CGUUUGAUACCAAAGAUUUTT against Onecut3 | inactive: 1.28
GGUGAUAACUCCGGGCCAATT against ORF9 | inactive: -1.92
CCUAAAAGGGUUUUUGCUUTT against H2afy2 | inactive: 2.25
CCCUUUUUAAUCGUCCCACTT against D0H4S114 | inactive: -0.713
GAGUACCAGCUGUUGUUCATT against Olfr392 | inactive: -0.745
GGCACAAGUCUCCUUGUAATT against Sybl1 | inactive: 0.538
CCAAGCCAAGCAAUCUUGATT against Chat | inactive: 1.39
GGAAAAGUUGAUUUCUCUATT against Olfr453 | inactive: -0.486
GGAAUUCUGCUUCAUGGAUTT against Cdc42ep4 | inactive: 0.343
GGUGCAAAGCACAGAUAUATT against 1110003E08Rik | inactive: 2.14
GGAAUGCUUUUGAGAUUCATT against E130307J04Rik | inactive: 0.1
CCCUAAGUUCUCGUUUCUGTT against Cherp | inactive: 1.57
CCAAAAAUGAAAUCACUGATT against Krt2-6g | inactive: 0.754
GCAUGCUGACACUUACUUUTT against Olfr878 | inactive: 1.3
GCUGAGCUCAGAACAUCUATT against Muc5b | inactive: 0.625
GGACUUUCUCAAGGACAGATT against Wnt5a | inactive: -2.32
GGCAAAGCUUAUGGAAAGCTT against 9130221H12Rik | inactive: 0.617
GGUGUGCUAGAAGAUAUUATT against Actr10 | inactive: -0.731
GGACUCCCUGGAUUUCAGATT against Rapgef3 | inactive: 0.836
GCCAUAUGCUAUCAAGAUGTT against AW539964 | inactive: 0.712
GGUCCUGCGCUUAUUUGAGTT against Pah | inactive: -1.61
CGCGGAGGUCUCUCUUAUUTT against Tesp1 | inactive: 1.04
GGGUGCAUUUGAGAAGAUCTT against Cast1 | inactive: 1.11
GGAUGACAUGAGCAUCAGUTT against Fdft1 | inactive: 1.27

Sequence | z-score
GGACUUCAGUGAGGAUCAATT against Sgne1 | inactive: 0.389
CGAUUCCUUUGUAACGAAATT against Aldh5a1 | inactive: -0.197
GGAAUGUGCCUAAGUUUGGTT against 1110021H02Rik | inactive: -2.55
CCAGAAGCCAUUAACUAUGTT against Lck | inactive: 0.224
GGUUGUGGAAGCAAGUAUGTT against C730048C13Rik | inactive: 1.29
GCUUUCUUACCAAGAGUCATT against A030011M19 | inactive: -0.26
GCAUGGUAUUAGGUUUUUUTT against Rab10 | inactive: 0.926
GGUGGAUCCUGACAUGUUCTT against Wdr40b | inactive: -1.71
CCUGUGGUGUUAAUAAGAUTT against 4732471D19Rik | inactive: -0.138
GGCUUGUCCACUGAACCUUTT against Nol1 | inactive: -2.29
GGAUCAGAAAUCAUCAAGCTT against Tsg-5 | inactive: 0.469
GGUUAAAGAAGCCAUGAAATT against Olfr480 | inactive: 1.26
GGUUUUUCUCUUGUGAUUUTT against Vegfc | inactive: 2.39
CCGUGGAAACAGUCCUGAATT against 4921532K09Rik | inactive: -0.827
GGAGCGAUUCACAAAUUACTT against 4932414K18Rik | inactive: 1.8
GGAUGAGAAGAAAGAAGAUTT against Ars2 | inactive: -0.215
GGCCUUUACGUCUUCCUAGTT against Zdhhc12 | inactive: -0.603
CGUUUGCACUACUCGUAACTT against Nrbf2 | inactive: 0.709
CGAGAUCAGGCUACGUCGATT against BC025575 | inactive: 0.422
GGAUGAAAGGCGGAUACUUTT against Etv4 | inactive: -1.73
GGAUGUGAUCCUUUUUUGATT against Cml2 | inactive: -0.31
GGGACUUAAGGUUAGACACTT against E330018D03Rik | inactive: 0.74
GCACAUCAGUACAUUUCACTT against Centg2 | inactive: -0.488
GGGCUUCAUCAACUAUCUUTT against Spint1 | inactive: -0.516
GAGAGCGGAGAGAUCAAAGTT against Iltifb | inactive: 1.62
GGUGCUUCCAGAAUCUUUATT against Epha5 | inactive: -0.9

Looked up above:
z-score with GGUUAAAGAAGCCAUGAAATT against Olfr480 is entered as inactive: 1.26
z-score with GGAUGUGAUCCUUUUUUGATT against Cml2 is entered as inactive: -0.31

In another format: results already given.
GGUGUGCUAGAAGAUAUUATT against Actr10
  z-score: inactive: -0.731
GCCAUAUGCUAUCAAGAUGTT against AW539964
  z-score: inactive: 0.712
GGUUUUUCUCUUGUGAUUUTT against Vegfc
  z-score: inactive: 2.39
